Results from patent publication US11685741B2, “Fluorescent probes” (University of Massachusetts, priority 2017, dated 2023).
Several values for one entry are separate records, joined by “and”; a condition that tells them apart may be missing. Identical values can stand only once. Entries after “also recorded” stand apart in the source; their conditions may differ.

Tests used:
[1] = test system: Bovine aortic endothelial cells (BAEC); assay: Confocal imaging of Fe2+ in BAEC cells; assay type: cell-based; details: MitoTracker and LysoTracker
Procedure: Bovine aortic endothelial cells BAEC cells, at an approximately density of 1.3 million/ml in complete EBM medium, were incubated with 100 μM ferrous ammonium sulfate (FAS, Fe (NH4)2(SO4)2 from a 10 mM stock solution) for overnight at 37° C. in a humid atmosphere of 5% CO2 and then the cells were washed with fresh EBM medium to remove excess Fe^2+. Then cells were incubated with Rh101D (10 μM, from 500 μM stock solution in DMF) at 37° C. for 30 min and then cells were washed with EBM media and then imaged. In addition, some cells were treated firstly with 100 μM Fe^2+ overnight and then the cells were washed with fresh EBM medium. For chelation experiments, Fe^2+-loaded cells or untreated cells were incubated with 1 mM 2,2′-bipyridyl (Bpy) at 37° C. for 30 min, then sensor was added followed by washing with the media, and then imaging was done. Controls were imaged without incubation with Fe^2+ or 2,2′-bipyridyl. HCT-116, a human colon adenocarcinoma cell line were used for concentration determination of Fe^2+ with the help of the ratiometric sensor Rh101D. HCT-116 were maintained in McCoy's 5A medium supplemented with 10% fetal bouvine serum and 5% antibiotic antimycotic in a 5% CO2 atmosphere at 37° C. Cultures were divided 1:2 every 48 h to an approximate cell density of 1.21 million cells/ml and used for experiments after 24 h. […]

[2] = test system: HCT-116 cells; assay: Ratiometric determination of labile Fe2+ concentration in HCT-116 cells; assay type: cell-based, human
Procedure: Bovine aortic endothelial cells BAEC cells, at an approximately density of 1.3 million/ml in complete EBM medium, were incubated with 100 μM ferrous ammonium sulfate (FAS, Fe (NH4)2(SO4)2 from a 10 mM stock solution) for overnight at 37° C. in a humid atmosphere of 5% CO2 and then the cells were washed with fresh EBM medium to remove excess Fe^2+. Then cells were incubated with Rh101D (10 μM, from 500 μM stock solution in DMF) at 37° C. for 30 min and then cells were washed with EBM media and then imaged. In addition, some cells were treated firstly with 100 μM Fe^2+ overnight and then the cells were washed with fresh EBM medium. For chelation experiments, Fe^2+-loaded cells or untreated cells were incubated with 1 mM 2,2′-bipyridyl (Bpy) at 37° C. for 30 min, then sensor was added followed by washing with the media, and then imaging was done. Controls were imaged without incubation with Fe^2+ or 2,2′-bipyridyl. HCT-116, a human colon adenocarcinoma cell line were used for concentration determination of Fe^2+ with the help of the ratiometric sensor Rh101D. HCT-116 were maintained in McCoy's 5A medium supplemented with 10% fetal bouvine serum and 5% antibiotic antimycotic in a 5% CO2 atmosphere at 37° C. Cultures were divided 1:2 every 48 h to an approximate cell density of 1.21 million cells/ml and used for experiments after 24 h. All experiments were performed with cells in the logarithmic growth phase.
To determine the concentration of labile Fe^2+ in cells, the ratiometric Fe^2+ sensor Rh101D has been developed. The two-band absorption/fluorescence nature of the ratiometric sensor enables the tracing of the cellular distribution of the sensor itself as well as detecting the labile Fe^2+ pools.
To determine the cellular concentration of Fe^2+, an in-vitro calibration curve was obtained by titrating the sensor, Rh101D (20 μM), with different concentrations of Fe^2+ and a calibration curve was obtained by plotting [Fe^2+] versus fluorescent ratio (F625/F500) (FIG. 50).
The in vitro solution studies have shown that Rh101D can detect Fe^2+ with excellent selectivity and the Fe^2+ concentration is correlated with the ratio of fluorescence intensities at 625 nm to 500 nm (FIG. 50). To examine whether it can detect Fe^2+ concentration in living systems, HCT-116, a human colon adenocarcinoma cell line was used to test its ability in determining endogenous Fe^2+ ions in live cells. […] However, in FIG. 51B, red color images are located in limited areas (certain organelles) in the cells, indicating Fe^2+ ions are in certain organelles. FIGS. 51D, H, and L are the ratiometric images of Rh101D at yellow and red channels. Fitting the ratiometric imaging data to the calibration curve gives Fe^2+ concentration in HCT-116 cells, with a value of ˜10±1 μM determined in the mitochondria of untreated cells, 14±1 μM in the mitochondria of Fe (II) treated cells, and 7±1 μM in the mitochondria of Fe(II)-chelator Bpy treated cells and ˜8±1 μM determined in the lysosomes of untreated cells, 11±1 μM in the lysosomes of Fe (II) treated cells, and 5±1 μM in the lysosomes of Bpy treated cells and the results were summarized in Table 1.

Row | Compound | subcellular location of exchangeable Fe^2+ pools detected [1] | Fe(II) concentration in lysosome, Bpy treated cells [2] [µM] | Fe(II) concentration in lysosome, Fe(II) treated cells [2] [µM] | Fe(II) concentration in lysosome, Untreated cells [2] | Fe(II) concentration in mitochondria, Bpy treated cells [2] [µM] | Fe(II) concentration in mitochondria, Fe(II) treated cells [2] [µM] | Fe(II) concentration in mitochondria, Untreated cells ([2]; ratio F625/F500 fitted to calibration curve)
1 | CCN(CC)c1ccc2c(c1)OC1=C(CCC/C1=C\C=C1\N(C)c3ccccc3C1(C)C)C21c2ccccc2C(=O)N1/N=C\C=C\c1ccc(N(C)C)cc1 (centres unmarked) [NIRh-Fret, (E)-6′-(diethylamino)-2-(((1Z,2E)-3-(4-(dimethylamino)phenyl)allylidene)amino)-4′-(2-((E)-1,3,3-trimethylindolin-2-ylidene)ethylidene)-1′,2′,3′,4′-tetrahydrospiro[isoindoline-1,9′-xanthen]-3-one] | mitochondria and endosomes/lysosomes |  |  |  |  |  | 
2 | CN(C)c1ccc(/C=C/C=N/N2C(=O)c3ccccc3C23c2cc4c5c(c2Oc2c3cc3c6c2CCCN6CCC3)CCCN5CCC4)cc1 [Rh101D] | mitochondria and lysosomes; also recorded: mitochondria and endosomes/lysosomes, not in the cytosol | 5 ± 1 | 11 ± 1 | ~8 ± 1 µM and 8 ± 1 µM | 7 ± 1 | 14 ± 1 | ~10 ± 1 µM and 10 ± 1 µM
